Construct, isoform or probe ends are uncertain for at least one entry. At least one result comes from cells or an extract, where the contact may be indirect. For some of these results: Negatives hold for the conditions tested.
What was measured:
[1] = molecular target: GATA-1 (Homo sapiens (MCF7 cells)) (UniProt P15976); experiment: EMSA supershift; conditions: MCF7 nuclear extract, anti-GATA-1, cold self competes; EMSA: 20 mM HEPES pH 7.4, 0.1 mM EDTA, 75 mM KCl, 2.5 mM MgCl2, 1 mM DTT, 5% glycerol, 0.05 mg/mL poly(dI:dC), 5 ug nuclear extract, room temperature; protein in an extract; label: 32P 5' end
[2] = molecular target: C/EBP-beta (Homo sapiens (MCF7 cells)) (UniProt P17676); experiment: EMSA supershift; conditions: MCF7 nuclear extract, anti-C/EBP-beta, cold self competes; EMSA: 20 mM HEPES pH 7.4, 0.1 mM EDTA, 75 mM KCl, 2.5 mM MgCl2, 1 mM DTT, 5% glycerol, 0.05 mg/mL poly(dI:dC), 5 ug nuclear extract, room temperature; protein in an extract; label: 32P 5' end
[3] = molecular target: C/EBP-beta (Homo sapiens (MCF7 cells)) (UniProt P17676); experiment: competition with a labelled probe; conditions: MCF7 nuclear extract, excess cold mutant vs labeled N1; EMSA: 20 mM HEPES pH 7.4, 0.1 mM EDTA, 75 mM KCl, 2.5 mM MgCl2, 1 mM DTT, 5% glycerol, 0.05 mg/mL poly(dI:dC), 5 ug nuclear extract, room temperature; protein in an extract; label: none (cold competitor), 32P when used as probe
[4] = molecular target: GATA-1 (Homo sapiens (MCF7 cells)) (UniProt P15976); experiment: competition with a labelled probe; conditions: MCF7 nuclear extract, excess cold mutant vs labeled N3; EMSA: 20 mM HEPES pH 7.4, 0.1 mM EDTA, 75 mM KCl, 2.5 mM MgCl2, 1 mM DTT, 5% glycerol, 0.05 mg/mL poly(dI:dC), 5 ug nuclear extract, room temperature; protein in an extract; label: none (cold competitor), 32P when used as probe

Protein sequences, listed by entry. Tags and fused reporters are not part of them. Lines headed by an entry give the natural chain unless they say otherwise; changes in a name come on top.
UniProt P15976: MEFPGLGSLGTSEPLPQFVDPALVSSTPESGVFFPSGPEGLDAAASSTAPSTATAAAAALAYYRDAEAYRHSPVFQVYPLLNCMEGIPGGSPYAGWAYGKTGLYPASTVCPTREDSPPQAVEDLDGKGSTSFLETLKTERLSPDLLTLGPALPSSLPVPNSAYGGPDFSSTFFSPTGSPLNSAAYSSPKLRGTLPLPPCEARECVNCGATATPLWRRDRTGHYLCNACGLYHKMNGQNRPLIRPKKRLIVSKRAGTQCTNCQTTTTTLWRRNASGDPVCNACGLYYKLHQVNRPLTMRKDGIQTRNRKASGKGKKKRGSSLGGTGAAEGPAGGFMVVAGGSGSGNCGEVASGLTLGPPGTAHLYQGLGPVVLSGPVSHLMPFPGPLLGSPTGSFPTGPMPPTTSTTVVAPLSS
UniProt P17676: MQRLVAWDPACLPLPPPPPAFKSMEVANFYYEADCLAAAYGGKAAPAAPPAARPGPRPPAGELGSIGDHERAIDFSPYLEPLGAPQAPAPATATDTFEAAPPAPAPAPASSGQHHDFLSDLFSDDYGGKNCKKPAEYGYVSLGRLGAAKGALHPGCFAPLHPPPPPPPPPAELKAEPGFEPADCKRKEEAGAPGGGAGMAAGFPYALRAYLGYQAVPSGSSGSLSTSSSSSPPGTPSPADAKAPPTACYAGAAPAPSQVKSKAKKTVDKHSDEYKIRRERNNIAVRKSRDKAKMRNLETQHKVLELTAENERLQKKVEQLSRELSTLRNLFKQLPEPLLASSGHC

Question: Does “AATCATTTATCTCATTTAAGGTACC (double strand) [Jab1 -435/-417 GATA1 WT]” bind [1]?
Answer: binds

Question: Does “CCTTACCTTTTAGTCTTTCAACAAACT (double strand) [Jab1 -462/-436 CEBP WT]” bind [2]?
Answer: binds

Question: Does “CCTTACCTTTTAGTCTTTCCTGCAAACT (double strand) [Jab1 -462/-436 CEBP Mut (M1)]” bind [3]?
Answer: no binding

Question: Does “GGAGTCATTTAAGGTACCTATACCC (double strand) [Jab1 -435/-417 GATA1 M1]” bind [4]?
Answer: no binding

Source: PMC3218954
